Reference: patent publication US20040109854A1 (published 2004)

Assays:
[1] = target: T1, full length TRAF6 fused to the GAL4 DNA binding domain (pM-TRAF6 full length, expressed in 293/EBNA cells) (yeast; human, UniProt P04386 1-147; Q9Y4K3 1-522); assay: mammalian two-hybrid assay, luciferase reporter, 293/EBNA cells
T1 construct: Mammalian two-hybrid construct; also called TRAF6-fusion protein

[2] = target: Full length TRAF 2 (amino acid 1-501) in bait vector pGBT9 (yeast, UniProt P04386 1-147; Q12933 1-501); assay: yeast two-hybrid, filter β-galactosidase assay
[3] = target: Full length TRAF 3 (amino acid 1-569) in bait vector pGBT9 (yeast, UniProt P04386 1-147; Q13114 1-568); assay: yeast two-hybrid, filter β-galactosidase assay
[4] = target: TRAF 3 dm (amino acid 1-268) in bait vector pGBT9 (yeast, UniProt P04386 1-147; Q13114 1-268); assay: yeast two-hybrid, filter β-galactosidase assay
[5] = target: T2, DNA binding domain of GAL4 (pGBT9 vector, empty bait) (yeast, UniProt P04386 1-147); assay: yeast two-hybrid, filter β-galactosidase assay, empty bait vector
T2 construct: Control bait

B1: full length TRAF6-inhibiting protein fused to the VP16 transcription activation domain (pVP16-TBZF, expressed in 293/EBNA cells) (other)
chain: MGLLTFRDVAIEFSLEEWQCLDTAQRNLCKNVILENYRNLVFLGIAVSKQDLITCLEQEKEPLTVKRHEMVNEPPVMCSHFAQEFWPEQNIKDSFEKVTLRRYEKCGNDNFQLKGCKSVDECKVHKGGYNGLNQCLPTMQSKMFQCDEYVKVFNKFSHSDRHKIKHMENKPFKCKECGRSFCMLSHLTRHERNYTKVNFCKCEECEKAVNQSSKLTKHKRIYTCEKLYKCQECDRTFNQFSNLTEYKKDYAREKPYKCEECGKAFNQSSHLTTHKIIHTGEKPYKCEECGKASNQFSNLTTHKKIHTGEQPYICEECGKAFTQSSTLTTHKRIHTGEKPYKCEECGKAFNRSSKLTEHKNIHTGEQPYKCEECGKAFNRSSNLTEHRKIHTEEKPYKCKECGKAFKHSSALTTHKRIHTGEKPYKCEECGKAFNRSSKLTEYKKLHTGKKPYKCEECGKAFIQSSKLTEHKKIHSGEIPYKCEECGKAFKHSSSLTTHKRIHTGEKPYKCEECSKAFSRSSKLTEHKIIHTGEKPYECERCDKAFNQSANLTKHKKIHTGEKLQNWNV
notes: Mammalian two-hybrid construct
B1: binds [1].

B2: recombinant TRAF6-inhibiting protein fused with the transcription activation domain of GAL4 (full length cDNA in pGAD424, expressed in yeast Y190) (other, not shown: large carriers)
chain: MGLLTFRDVAIEFSLEEWQCLDTAQRNLCKNVILENYRNLVFLGIAVSKQDLITCLEQEKEPLTVKRHEMVNEPPVMCSHFAQEFWPEQNIKDSFEKVTLRRYEKCGNDNFQLKGCKSVDECKVHKGGYNGLNQCLPTMQSKMFQCDEYVKVFNKFSHSDRHKIKHMENKPFKCKECGRSFCMLSHLTRHERNYTKVNFCKCEECEKAVNQSSKLTKHKRIYTCEKLYKCQECDRTFNQFSNLTEYKKDYAREKPYKCEECGKAFNQSSHLTTHKIIHTGEKPYKCEECGKASNQFSNLTTHKKIHTGEQPYICEECGKAFTQSSTLTTHKRIHTGEKPYKCEECGKAFNRSSKLTEHKNIHTGEQPYKCEECGKAFNRSSNLTEHRKIHTEEKPYKCKECGKAFKHSSALTTHKRIHTGEKPYKCEECGKAFNRSSKLTEYKKLHTGKKPYKCEECGKAFIQSSKLTEHKKIHSGEIPYKCEECGKAFKHSSSLTTHKRIHTGEKPYKCEECSKAFSRSSKLTEHKIIHTGEKPYECERCDKAFNQSANLTKHKKIHTGEKLQNWNV
notes: also called TBZF
B2: no binding [2]; no binding [3]; no binding [4]. B2: no binding [5].
